According to paper PMC5996148:
The list shows a part of the results. For some of these results: Construct or isoform of the protein are uncertain.

By UniProt entry, the sequences of proteins in these tests, tags left out. Where a name states a change or a piece, a line headed by the entry shows the natural chain unless it says otherwise.
UniProt P04053: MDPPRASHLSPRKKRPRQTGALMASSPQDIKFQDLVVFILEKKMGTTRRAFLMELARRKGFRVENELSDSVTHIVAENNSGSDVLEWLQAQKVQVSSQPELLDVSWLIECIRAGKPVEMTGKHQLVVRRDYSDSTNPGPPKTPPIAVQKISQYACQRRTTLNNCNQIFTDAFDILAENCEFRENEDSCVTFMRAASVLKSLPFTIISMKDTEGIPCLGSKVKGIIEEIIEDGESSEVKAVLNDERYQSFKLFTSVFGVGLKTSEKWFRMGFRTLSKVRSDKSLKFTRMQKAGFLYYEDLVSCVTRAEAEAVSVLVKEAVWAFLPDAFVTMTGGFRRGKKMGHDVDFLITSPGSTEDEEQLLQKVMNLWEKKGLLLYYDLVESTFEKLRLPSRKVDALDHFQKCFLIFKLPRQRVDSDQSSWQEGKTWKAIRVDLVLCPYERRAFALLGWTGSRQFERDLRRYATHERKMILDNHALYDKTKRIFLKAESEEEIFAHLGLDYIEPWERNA

What was measured:
Assay in all cases: protein microarray (ProtoArray v5.0), streptavidin-Alexa Fluor 647
Conditions in all cases: 3'-biotin; 20 mM Tris (pH 7.5), 5 mM MgCl2, 100 mM KCl, 0.1% Tween-20, A/T-rich and random oligonucleotide blockers; temperature not stated; high values mean tight binding
DNAL1 (human) = system: DNAL1 (human)
DNAL4 = target: T1, DNAL4 (UniProt O96015)
T1 sequence: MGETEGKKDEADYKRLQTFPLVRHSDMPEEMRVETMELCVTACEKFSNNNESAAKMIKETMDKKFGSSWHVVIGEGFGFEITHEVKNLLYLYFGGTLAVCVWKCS

DNTT = DNTT (UniProt P04053)
DPCR1 (human) = system: DPCR1 (human)
DPP3 (human) = system: DPP3 (human)
DSCR4 (human) = system: DSCR4 (human)
DTNB (human) = system: DTNB (human)
DTNBP1 (human) = system: DTNBP1 (human)
DUSP6 (human) = system: DUSP6 (human)
DUT (human) = system: DUT (human)

GGGGACAGGGGTATGGGGAGGGG [G4-3 biotinylated (CtG)]
binding signal (DNAL1 (human)): -0.324 z-score
binding signal (DNAL4): -0.327 z-score
binding signal (DNTT): 5.35 z-score
binding signal (DPCR1 (human)): -0.318 z-score
binding signal (DPP3 (human)): -0.307 z-score
binding signal (DSCR4 (human)): -0.322 z-score
binding signal (DTNB (human)): -0.32 z-score
binding signal (DTNBP1 (human)): -0.334 z-score
binding signal (DUSP6 (human)): -0.338 z-score
binding signal (DUT (human)): -0.309 z-score
